Our source for the inhibition zone (IZ) values is ChEMBL document CHEMBL1153370, “New pyridazine derivatives: synthesis, chemistry and biological activity” (2009).

The test relates to Candida albicans. Kind of test: Antifungal activity Candida albicans ATCC 10231 at 100 ug/disk after 48 hrs at 28 degC by agar diffusion technique. The test is classed as functional, organism-based. (In general: In agar diffusion tests the substance spreads into inoculated agar from a disc or well.)

As for NYSTATIN, the inhibition zone (IZ) worked out at 29 mm.
